These are yes or no findings as the source states them, for the method shown.

Amino acid sequences for entries named in this document (tags omitted). A change or cut given only in a name is not applied to a line headed by its entry. Residues count along the entry.
UniProt Q9NZM1, residues 1-1997: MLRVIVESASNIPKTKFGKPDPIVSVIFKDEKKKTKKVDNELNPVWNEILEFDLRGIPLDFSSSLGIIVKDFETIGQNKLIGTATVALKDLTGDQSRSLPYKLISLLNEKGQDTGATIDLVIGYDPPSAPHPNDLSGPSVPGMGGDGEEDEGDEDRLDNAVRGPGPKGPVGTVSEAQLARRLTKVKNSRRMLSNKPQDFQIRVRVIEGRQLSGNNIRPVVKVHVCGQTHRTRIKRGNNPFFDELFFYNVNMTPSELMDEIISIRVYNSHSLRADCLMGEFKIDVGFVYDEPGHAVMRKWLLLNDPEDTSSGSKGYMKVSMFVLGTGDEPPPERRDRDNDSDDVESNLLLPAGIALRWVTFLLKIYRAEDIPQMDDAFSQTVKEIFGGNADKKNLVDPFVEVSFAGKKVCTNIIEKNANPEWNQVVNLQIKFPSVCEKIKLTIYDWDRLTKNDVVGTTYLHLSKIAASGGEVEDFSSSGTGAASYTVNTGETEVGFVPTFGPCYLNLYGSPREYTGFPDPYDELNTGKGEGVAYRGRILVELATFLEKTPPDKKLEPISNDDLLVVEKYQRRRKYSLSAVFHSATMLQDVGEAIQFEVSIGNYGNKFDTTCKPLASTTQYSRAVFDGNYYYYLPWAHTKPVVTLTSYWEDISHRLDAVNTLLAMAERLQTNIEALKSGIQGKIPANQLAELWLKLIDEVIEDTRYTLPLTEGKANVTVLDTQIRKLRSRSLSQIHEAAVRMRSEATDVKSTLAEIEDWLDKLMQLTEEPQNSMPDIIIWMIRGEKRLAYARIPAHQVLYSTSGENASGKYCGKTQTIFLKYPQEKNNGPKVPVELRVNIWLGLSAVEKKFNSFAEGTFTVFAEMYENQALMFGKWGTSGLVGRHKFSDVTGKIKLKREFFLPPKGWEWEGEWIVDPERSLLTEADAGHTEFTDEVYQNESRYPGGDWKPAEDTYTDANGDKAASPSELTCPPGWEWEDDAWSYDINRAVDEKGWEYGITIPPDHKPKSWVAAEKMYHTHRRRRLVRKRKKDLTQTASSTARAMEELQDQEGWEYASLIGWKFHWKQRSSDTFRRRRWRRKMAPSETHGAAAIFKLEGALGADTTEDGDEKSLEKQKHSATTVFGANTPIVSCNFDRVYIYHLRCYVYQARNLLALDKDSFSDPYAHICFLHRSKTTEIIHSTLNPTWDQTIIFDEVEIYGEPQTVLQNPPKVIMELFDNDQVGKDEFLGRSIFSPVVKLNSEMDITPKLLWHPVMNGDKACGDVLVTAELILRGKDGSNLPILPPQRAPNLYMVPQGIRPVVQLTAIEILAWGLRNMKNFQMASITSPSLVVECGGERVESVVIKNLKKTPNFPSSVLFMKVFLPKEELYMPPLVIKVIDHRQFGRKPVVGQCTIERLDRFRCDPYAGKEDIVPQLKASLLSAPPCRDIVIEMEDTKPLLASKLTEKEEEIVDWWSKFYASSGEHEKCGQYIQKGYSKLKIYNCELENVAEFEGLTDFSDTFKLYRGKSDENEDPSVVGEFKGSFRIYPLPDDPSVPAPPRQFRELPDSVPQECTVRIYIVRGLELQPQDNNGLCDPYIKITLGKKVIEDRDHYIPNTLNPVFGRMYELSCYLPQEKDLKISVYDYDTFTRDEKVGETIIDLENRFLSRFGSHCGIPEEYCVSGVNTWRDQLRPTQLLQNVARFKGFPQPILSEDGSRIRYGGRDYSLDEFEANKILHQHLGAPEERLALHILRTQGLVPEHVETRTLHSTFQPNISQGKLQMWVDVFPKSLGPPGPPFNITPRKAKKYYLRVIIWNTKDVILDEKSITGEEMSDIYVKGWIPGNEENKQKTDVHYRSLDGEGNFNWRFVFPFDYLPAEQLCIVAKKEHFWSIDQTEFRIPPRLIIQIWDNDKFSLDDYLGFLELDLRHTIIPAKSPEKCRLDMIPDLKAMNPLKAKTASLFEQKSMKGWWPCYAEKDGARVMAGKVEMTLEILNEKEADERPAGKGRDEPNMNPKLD

Results on one substance are retold here after PMC12264198.

For this assay, the target named is soluble human myoferlin (residues 1-1997) (human) (UniProt Q9NZM1). Description: SEC; Superose 6 Increase 10/300 GL; 25 mM HEPES-KOH pH 7.5, 150-200 mM KCl, 1.25-2.5% glycerol, 1 mM DTT (or 0.5 mM TCEP), 0.5 mM CaCl2; both purified.

Take “soluble human myoferlin (residues 1-1997) (from UniProt Q9NZM1-1 1-1997) (domain or fragment)”: the binding result is “no binding”.
